Results reported in PMC7810988, “Inositol pyrophosphates promote the interaction of SPX domains with the coiled-coil motif of PHR transcription factors to regulate plant phosphate homeostasis” (Nature Communications, 2021).
Results are given in words; binding and its absence hold for the method and conditions named. Binding calls can cover weak binding; strength is not graded here.

Molecular target: plant brassinosteroid receptor kinase BRI1 (yeast two-hybrid)
Test: two-hybrid; BRI1 and BKI1 in wild-type, Δvip1 and Δkcs1 yeast; which was bait is not stated

binding: binds
B1: inhibitor protein BKI1 (yeast two-hybrid) (protein, UniProt Q9FMZ0 1-337)
chain: METNLQQVKNSSQTFSEKQNPKQEASPSPISSTCSSPSHDFSFTISLQPLSSSSKHISPTLRSPSKTTSSYQQTDPFAVDLSPADEIFFHGHLLPLHLLSHLPVSPRTSTGSYNDGFTLPVKDILPDQPTNNNNNTENAITNISTEAKDDNTEDKAEGEIRVKTKPIKSFSLFGLSKWRKGFESNEREQEQQQQKIKKPMSLDLSHAVKKYIRMLFQKRGNGTQFWNRRQTSSYSFSSSLMGPNGNSKTMINGSYNKRDLIRGRRGELFSAPASMRTSPTNSGHLRVSTAGLSSSSGSTSSSSSDSTMEELQAAIQAAIAHCKNSSAVDRDDKVKDS
